Results as given in US9387257B2, “Lung cancer specific peptides for targeted drug delivery and molecular imaging” (Academia Sinica, priority 2014, dated 2016).
Part of at least one peptide drawing is inferred or uncertain, most often the ends. Some results were stated once for a whole list of compounds, not compound by compound. Where no end group is shown, it is not given here.

Tests used:
[1] = tested on: H460 human lung large cell carcinoma xenografts; assay: Ligand-targeted therapy, lung large cell carcinoma xenograft model; format: in vivo, SCID mice; details: for increase of tumor accumulation and therapeutic efficacy in LD delivery: H460 xenograft model, summary statement
Protocol: Female SCID mice 4-6 weeks of age were injected subcutaneously in the dorsolateral flank with human NSCLC cells. Mice with size-matched tumors (approximately 75 mm^3 for small tumor; 300 or 500 mm^3 for large tumor) were then randomly assigned to different treatment groups, and were injected intravenously with liposomal doxorubicin (LD), liposomal vinorelbine (LV), targeting peptide (HSP1, HSP2 or HSP4)-conjugated LD or LV, free doxorubicin (FD), free vinorelbine (FV) or equivalent volumes of saline. The dosages of drugs and administration time courses were described in figure legends depend on different experiment design. Mouse body weights and tumor sizes were measured twice a week. Tumor volumes were calculated according to this formula: length×(width)^2×0.52. Animal care was carried out in accordance with guidelines of Academia Sinica, Taipei, Taiwan. The protocol was approved by the Committee on the Ethics of Animal Experiments of Academia Sinica.

[2] = tested on: H1993 adenocarcinoma cells; assay: Immunofluorescence staining (IFA) of FITC-labeled peptides; format: cell-based, human; details: compared among HSP1, 2, 4
Protocol: H460 and H1993 cells were seeded and grown to about 50% confluence on cover slips. After the cells had been fixed with 2% paraformaldehyde, they were incubated with 10 μg/mL FITC-labeled HSP1, 2, 4 or control peptides. Then the slides were counterstained with 4′,6-diamidino-2-phenylindole (DAPI), mounted and examined under a Leica universal fluorescent microscope. The images were merged using the MetaMorph Image Analysis Software.

H1993 cells = assay: Uptake of targeting peptide-conjugated LSRB; format: cell-based, human; details: peptide-conjugated liposomal SRB, time course, 37° C.
Protocol: (§1) H460 and H1993 cells were grown on a 24-well plate to 90% confluency, and 20, 10, 5, 2.5, 1.25, 0.625 μM HSP1, 2, 4-liposomal sulforhodamine B (LSRB) or LSRB in complete culture medium was added. The cells were incubated at 37° C., at the following time periods: 10, 30 min, 1, 2, 4, 8, 16 and 24 hours. At the indicated time point, cells were washed with PBS, and non-internalized LSRB on the cell surface was removed by adding 0.1 M Glycine, pH 2.8 for 10 min. Cells were then lysed with 200 μl 1% Triton X-100. Uptake of LD at low concentration in H1993 cells was performed using same protocol. For extraction of SRB or doxorubicin, 300 μl IPA (0.75 N HCl in isopropanol) was added to the lysate and shaken for 30 min. After the lysate was centrifuged at 12,000 rpm for 5 min, the amount of uptakes were determined by measuring Excitation/Emission wavelengths of fluorescence at 520/570 nm for SRB and 485/590 nm for doxorubicin using, a spectrofluorometer (SPECTRAMAX® M5, Molecular Devices). The concentration of SRB and doxambicin were calculated by interpolation using a standard curve.

H460 cells [3] = assay: Uptake of targeting peptide-conjugated LSRB; format: cell-based, human; details: peptide-conjugated liposomal SRB, time course, 37° C.
Protocol: as §1

H460 cells [4] = assay: In vitro cytotoxicity assay of targeting peptide-conjugated LD (MTT); format: cell-based, human
Protocol: H460 cells were seeded in 96-well plates (5000 cells/well) in complete culture media and were incubated overnight. Next day, cells were treated with varying concentration (0˜100 μM) of HSP1-LD, HSP2-LD, HSP4-LD or LD at 37° C. for 24 hours; After removal of the excess drug, the cells were washed once with PBS and continued to incubate with fresh culture medium for 48 h at 37° C. The cell viability was measured by adding 50 μl of MTT (Thiazolyl Blue Tetrazolium Bromide; Sigma-Aldrich) to each well of the plate. After 3.5 hours MTT incubation, 150 μl of Dimethyl sulfoxide (DMSO; Mallinckrodt Baker) was added to each well for 10 min, and the absorbance was determined with microplate reader (SPECTRAMAX® M5, Molecular Devices) at 540 nm.

| Sequence | increase of tumor accumulation and therapeutic efficacy in LD delivery [1] | therapeutic efficacy of LD ([1]; large tumor ~500 mm^3, 2 mg/kg/injection i.v. twice a week) | receptor density on the cell surface (fluorescent intensity) [2] | liposome internalization compared to non-targeting LSRB (H1993 cells) | liposome internalization compared to non-targeting LSRB (H460 cells [3]) | decrease of the half maximal inhibitory concentration (IC50) compared to LD (H460 cells [4]; peptide-conjugated LD at optimal peptide ratio, H460 cells) [fold] | reduction in IC50 in vitro (H460 cells [4]; peptide-mediated DDS, summary statement) |
| --- | --- | --- | --- | --- | --- | --- | --- |
| NNPWREMMYIEI [HSP4, NNPWREMMYIEI] | up to 2 fold | significantly improved therapeutic efficacy | higher receptor density | enhanced liposome internalization | enhanced liposome internalization | 9.4 | about 10 fold |
| NPWEEQGYRYSM (FITC label; HSP2) | up to 2 fold |  |  |  |  |  |  |
